# US7074908
# The chains behind the UniProt entries cited, without tags or fusion partners.
# UniProt Q02248: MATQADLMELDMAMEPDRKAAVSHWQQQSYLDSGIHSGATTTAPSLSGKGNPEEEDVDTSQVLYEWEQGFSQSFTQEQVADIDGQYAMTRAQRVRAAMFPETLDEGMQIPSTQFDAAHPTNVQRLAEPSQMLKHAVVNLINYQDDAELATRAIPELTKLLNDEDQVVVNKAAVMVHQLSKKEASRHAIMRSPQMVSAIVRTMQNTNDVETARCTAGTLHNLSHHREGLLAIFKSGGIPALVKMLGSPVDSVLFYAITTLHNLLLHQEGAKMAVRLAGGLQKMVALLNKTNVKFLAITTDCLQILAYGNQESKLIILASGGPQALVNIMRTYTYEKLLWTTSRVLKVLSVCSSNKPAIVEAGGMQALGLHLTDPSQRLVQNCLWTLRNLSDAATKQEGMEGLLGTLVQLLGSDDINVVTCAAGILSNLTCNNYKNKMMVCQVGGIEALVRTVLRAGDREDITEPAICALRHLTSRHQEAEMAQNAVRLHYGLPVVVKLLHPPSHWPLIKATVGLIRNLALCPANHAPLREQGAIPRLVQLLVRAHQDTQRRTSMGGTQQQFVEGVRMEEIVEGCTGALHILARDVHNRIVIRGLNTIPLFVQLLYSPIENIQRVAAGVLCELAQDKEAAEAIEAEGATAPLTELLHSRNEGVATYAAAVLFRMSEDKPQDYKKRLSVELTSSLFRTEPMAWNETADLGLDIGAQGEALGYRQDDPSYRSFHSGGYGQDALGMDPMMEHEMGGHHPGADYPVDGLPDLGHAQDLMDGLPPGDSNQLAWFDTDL
# Results are given in words; binding and its absence hold for the method and conditions named. Binding seen in cells or lysates may run through a third protein. Some binding calls cover weakened binding; strength is not graded here.
# B1: murine Ozz protein (protein)
# chain: MAAPSEHVGLGAPRSPARPEPPPTRFHQVHGANIRMDPSGTRATRVESFAHGVCFSREPLAPGQVFLVEIEEKELGWCGHLRLGLTALDPASLAAVPEFSLPDLVSLGHSWVFAITRHHNRVPREGQPEAEAAVPSGPQALLVEPYLRIEQFRIPRDRLVGRSRPGLYSHLLDQLYEQNVLPPTARRSRLGVLFCPREDGTADMHIIINGEDMGPSARGLPAAQPLYAVVDVFASTKSVRLVQLEYGLPSLQTLCRLVIQKRVVHRLAIDVLHLPKGLKDFCKYE
# What was measured:
# β-catenin (mouse) [1] = molecular target: β-catenin (mouse) (UniProt Q02248); assay: co-immunoprecipitation with anti-β-catenin antibody from gel-filtration fraction of adult mouse heart extract
# β-catenin (mouse) [2] = molecular target: β-catenin (mouse) (UniProt Q02248); assay: co-immunoprecipitation from lysates of co-transfected COS-1 cells
binder,measurement,setting,value
B1,binding,β-catenin (mouse) [1],binds
same,binding,β-catenin (mouse) [2],binds
